One may read the AC50 as the concentration at which the activity in the assay is half-maximal.

This note sets out measurements from PubChem BioAssay AID1487 (National Center for Advancing Translational Sciences (NCATS), 2009).

The assay is described as follows: qHTS Assay for Modulators of Lamin A Splicing. The settings on record: HeLa LMNA splicing GFP/RFP minigene ratio, 48 h. A digest of the protocol:
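Read-out is the ratio of GFP to DsRed2 object intensity, acquired by 488 nm laser-scanning cytometry on HeLa lamin A-EGFP minigene reporter cells. Compound incubation 48 hrs at 37 °C in Opti-MEM with 2% FBS; DMSO 0.5% final.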

[1] abbreviates: measured here: GFP splicing reporter channel.
The mark [2] stands for this setting: measured here: RFP viability control channel.

The list shows a part of the results. The main result of the screen is listed elsewhere. These columns were measured beside it and carry no call. Most of these compounds were active or inconclusive in the main read-out, so they are no random draw. Words in brackets tell the shape of the fitted curve; partial curves, single points and poor fits give uncertain potencies.

Consider `COc1cccc(C(=O)/C=C2\Sc3ccccc3N2C)c1`, for which, under setting [1], the AC50 is 35.5 µM [falling, partial curve, poor fit].
Regarding `CC(=O)Oc1c(/C=C(\C#N)C(N)=O)[nH]c2ccccc12`, under setting [1], the AC50 is 31.6 µM [rising, single point].
Regarding `CCC(O)CC(C(=O)NNc1ccccc1)C(=O)NNc1ccccc1` (stereo not drawn), under setting [2], the AC50 was 4.47 µM [rising, full curve, poor fit].
As for `Cc1cc(C)n(C(C)CC(=O)NCc2ccc(N(C)C)cc2)n1` (stereo not drawn), the AC50 runs as follows: under setting [1], 0.112 µM [falling, full curve, poor fit]; under setting [2], 0.282 µM [falling, partial curve, poor fit].
As to `COc1ccc(NS(=O)(=O)c2ccc(NC(C)=O)cc2)cc1OC`, the AC50 reads like this: under setting [1], 6.31 µM [rising, full curve, poor fit]; under setting [2], 10 µM [rising, partial curve].
In the case of `COc1cc(Cl)c(C)cc1NC(=O)Cn1ncc2c([nH]c3ccccc32)c1=O`, the AC50 under setting [2] is 0.0112 µM [falling, full curve, poor fit].
On the same count and under the same terms, the figure for `O=C(CSc1nc2cc(Cl)ccc2s1)Nc1cccc(S(=O)(=O)N2CCOCC2)c1` is 17.8 µM [rising, single point]; for `O=C(/C=C/c1cn(CC(O)CN2CCCCC2)c2ccccc12)c1cccs1` (stereo not drawn) it is 14.1 µM [rising, partial curve].
Same read-out and setting: the same measure for `COc1ccc(C(=O)c2oc3ccc(OC)cc3c2N)cc1`: 7.94 µM [rising, partial curve, poor fit].
`Cn1c(=O)c2c(nc(N3CCCCC3)n2CCSc2nc3ccccc3s2)n(C)c1=O`: the AC50 is 35.5 µM [rising, single point] under setting [1] and 35.5 µM [rising, single point] under setting [2].
As for `COc1ccc(Oc2ncc3nc(-c4cc(F)cc(F)c4)c(=O)n(C[C@H]4CCCO4)c3n2)cc1`, the AC50 under setting [1] is 12.6 µM [falling, partial curve, poor fit].
As for `Cc1cc(Nc2cccc(C(F)(F)F)c2)nc2ccc(NC(=O)c3ccc(=O)[nH]c3)cc12`, the AC50 is 11.2 µM [falling, partial curve] under setting [1] and 11.2 µM [falling, partial curve] under setting [2].
For the compound `N#C/C(=C/c1ccc([N+](=O)[O-])cc1)C(=O)Nc1ccccc1O`, the AC50 under setting [2] is 7.08 µM [rising, partial curve].
As for `Cn1c(CN2CCN(C(=O)c3ccccc3)CC2)nc2cc([N+](=O)[O-])ccc21`, the AC50 was 10 µM [rising, single point] under setting [1] and 14.1 µM [rising, partial curve] under setting [2].
In the case of `O=c1cc(-c2ccccc2)[nH]c2nc3ccccc3n12`, under setting [2], the half-maximal activity concentration (AC50) is 1 µM [rising, full curve, poor fit].
Still for that read-out and setting: the same measure for `Cc1ccc(S(=O)(=O)NCCC(=O)Nc2ccc(C)cc2C(=O)c2ccccc2)cc1`: 3.55 µM [rising, partial curve]; for `COc1ccc(C(=O)NC(=S)NNC(=O)c2c(-c3ccccc3)noc2C)cc1`: 12.6 µM [rising, partial curve].
With `O=C1C(Cl)=C(N2CCOCC2)C(=O)N1c1ccccc1`, the AC50 under setting [1] was 0.501 µM [falling, single point].
As for `Nc1cccc(Nc2ccccc2)c1`, the AC50 is 2.82 µM [falling, partial curve, poor fit] under setting [1] and 5.62 µM [falling, partial curve, poor fit] under setting [2].
Regarding `CC(C)CC(NC(=O)C1CCC(C)CC1)C(=O)Nc1ccccn1` (stereo not drawn), under setting [2], the concentration at half-maximal activity (AC50) is 0.0631 µM [rising, full curve, poor fit].
Take `O=C(c1ccco1)N1CCN(c2ncnc3c2[nH]c2ccccc23)CC1`: the AC50 is 12.6 µM [rising, partial curve] under setting [1] and 12.6 µM [rising, partial curve] under setting [2].
`O=C(NCc1ccc(F)cc1)c1cc(S(=O)(=O)N2CCOCC2)ccc1F`: the AC50 under setting [2] was 0.0316 µM [falling, full curve, poor fit].
For `CC1CN(C(=O)N2CCC(C(=O)NC3CCCCCC3)CC2)c2ccccc2O1` (stereo not drawn), the AC50 under setting [2] is 0.01 µM [falling, full curve, poor fit].
On the same count and under the same terms, the same measure for `CNC(=O)C(=O)N/N=C/c1ccc(Br)cc1`: 1.26 µM [rising, single point]; for `CCOC(=O)CSc1nnc(CNC(=O)c2ccc(OC)c(OC)c2)n1C`: 3.55 µM [rising, partial curve, poor fit].
Same read-out and setting: the figure for `O=C(Cn1cnc2ccccc21)Nc1ccc(SC(F)F)cc1` is 20 µM [rising, single point].
With `CCOC(=O)C1(CCc2ccccc2)CCN(C(=O)CCc2cnccn2)CC1`, the AC50 under setting [1] is 2.24 µM [falling, partial curve, poor fit].
For the compound `O=[N+]([O-])c1ccc(C=Nc2cccc3ccccc23)s1`, the AC50 reads like this: under setting [1], 35.5 µM [falling, single point]; under setting [2], 20 µM [falling, partial curve, poor fit].
With `Cc1ccc(N(Cc2cccs2)C(=O)COc2ccccc2[N+](=O)[O-])cc1`, the half-maximal activity concentration (AC50) under setting [2] is 1.58 µM [rising, full curve, poor fit].
For the compound `COc1ccc(C2C=C(c3ccc(C)c(C)c3)Nc3ncnn32)c(OC)c1OC` (stereo not drawn), under setting [2], the AC50 is 3.98 µM [rising, single point].
In the case of `O=C(O)c1ccccc1-c1c2ccc(=O)cc-2oc2cc(O)ccc12`, under setting [1], the AC50 was 0.0251 µM [falling, full curve].
Consider `CCOC(=O)c1c(NC(=O)C(C)Sc2c[nH]c3ccccc23)sc2c1CCC2` (stereo not drawn), for which the AC50 under setting [1] was 11.2 µM [rising, single point] and the AC50 under setting [2] is 25.1 µM [rising, single point].
As for `Oc1ccccc1N=Cc1ccc[nH]1`, the AC50 under setting [2] is 12.6 µM [rising, partial curve].
In the case of `Cc1ccc2c(CC(=O)OCc3nc(N)nc(Nc4ccccc4C)n3)coc2c1`, the AC50 was 1 µM [rising, partial curve, poor fit] under setting [1] and 3.98 µM [rising, partial curve, poor fit] under setting [2].
As for `COc1cc(/C=C(/C#N)c2ccccc2)ccc1Oc1ccc([N+](=O)[O-])cn1`, the concentration at half-maximal activity (AC50) under setting [2] is 10 µM [rising, partial curve].
In the case of `O=C(c1ccc(-c2cc3ccccc3oc2=O)cc1)N1CCN(c2ccc(Cl)cc2[N+](=O)[O-])CC1`, under setting [2], the AC50 is 7.94 µM [rising, partial curve, poor fit].
Take `Cc1cc2cc(CN(Cc3ccco3)C(=S)NCC3CCCO3)c(=O)[nH]c2cc1C` (stereo not drawn): under setting [2], the AC50 was 15.8 µM [rising, partial curve, poor fit].
As for `CC(C)c1ccc(NC(=O)c2ccc(Br)o2)cc1`, the AC50 under setting [2] is 35.5 µM [rising, single point].
In the case of `CC(C)[C@H](NC(=O)OC(C)(C)C)c1nnc(S(=O)(=O)Cc2c(F)cccc2Cl)o1`, the AC50 is 25.1 µM [falling, single point] under setting [1] and 14.1 µM [rising, single point] under setting [2].
In the case of `Cc1sc(N)nc1C12CC3CC(CC(C3)C1)C2`, the AC50 under setting [1] was 1.78 µM [rising, partial curve, poor fit].
For the compound `Nc1c(C(O)(C(F)(F)F)C(F)(F)F)cc(C(O)(C(F)(F)F)C(F)(F)F)c2ccccc12`, the AC50 under setting [2] was 12.6 µM [rising, partial curve].
Still for that read-out and setting: the same measure for `CC(C)CNC(=O)c1cccc(NC(=O)COc2ccc([N+](=O)[O-])cc2)c1`: 1.78 µM [falling, partial curve, poor fit].
For `CC(=O)OCCNc1cc(Sc2nc3ccccc3[nH]2)c2nonc2c1[N+](=O)[O-]`, the AC50 is 31.6 µM [falling, single point] under setting [1] and 35.5 µM [rising, single point] under setting [2].
In the case of `COc1ccc(Br)cc1CSC(=N)N`, the AC50 under setting [1] is 0.0141 µM [falling, full curve, poor fit].
Regarding `CCOC(=O)N1CCN(C(=S)NC(=O)c2ccnn2C)CC1`, the AC50 under setting [2] is 15.8 µM [falling, partial curve].
Regarding `COc1cc(CC(=O)Nc2cccc(C(F)(F)F)c2)cc(OC)c1OC`, the AC50 under setting [2] was 12.6 µM [rising, partial curve].
With `CCCCCCCCNC(=O)c1cccnc1SCC(=O)Nc1ccccc1OC`, under setting [1], the AC50 is 22.4 µM [rising, single point].
Consider `CCCC(=O)Nc1nc2ccc(NC(=O)c3cccnc3)cc2s1`, for which the half-maximal activity concentration (AC50) under setting [2] was 0.224 µM [falling, full curve, poor fit].
For the compound `CCOC(=O)Nc1nn(-c2ccc(C)cc2)c(=O)c(C#N)c1C`, the AC50 under setting [2] is 0.282 µM [falling, full curve, poor fit].
The same measure, in the same setting: the figure for `CCOc1ccc(CCNC(=O)C2CCCN(S(=O)(=O)c3c(C)n[nH]c3C)C2)cc1OCC` (stereo not drawn) is 35.5 µM [rising, single point]; for `Cc1ccc(C)c(NC(=S)c2ccc3ccccc3n2)c1` it is 11.2 µM [rising, partial curve].
For `NCCCCN=C(N)N`, the AC50 under setting [1] is 0.00562 µM [rising, full curve, poor fit].
Regarding `O=C(NCC1CCCO1)c1csc(Nc2cccc3ccccc23)n1` (stereo not drawn), the AC50 is 0.631 µM [rising, partial curve] under setting [1] and 2 µM [rising, single point] under setting [2].
Regarding `N#Cc1nc(Cc2cccc3ccccc23)oc1NCc1ccco1`, the half-maximal activity concentration (AC50) under setting [2] is 22.4 µM [rising, partial curve].
Turning to `COc1ccc(NS(=O)(=O)c2cc(NC(=O)CNC(=O)c3ccc(C)s3)ccc2Cl)cc1`, the AC50 runs as follows: under setting [1], 11.2 µM [rising, partial curve]; under setting [2], 14.1 µM [rising, single point].
On to `COc1ccc(C2(O)CC3CCC(C2)N3c2cc(C)nc(-c3ccccc3)n2)cc1` (stereo not drawn), for which the AC50 is 11.2 µM [rising, partial curve] under setting [1] and 15.8 µM [rising, partial curve] under setting [2].
In the case of `CC1CCN(CCOCCOc2ccc(Br)cc2Cl)CC1`, the AC50 runs as follows: under setting [1], 11.2 µM [rising, partial curve]; under setting [2], 11.2 µM [rising, partial curve].
